# These are yes or no findings as the source states them, for the method shown. Binding seen in cells or lysates may run through a third protein. Some binding calls cover weakened binding; strength is not graded here.
# Amino acid sequences for entries named in this document (tags omitted). Residues count along the entry.
# UniProt P62812, residues 28-455: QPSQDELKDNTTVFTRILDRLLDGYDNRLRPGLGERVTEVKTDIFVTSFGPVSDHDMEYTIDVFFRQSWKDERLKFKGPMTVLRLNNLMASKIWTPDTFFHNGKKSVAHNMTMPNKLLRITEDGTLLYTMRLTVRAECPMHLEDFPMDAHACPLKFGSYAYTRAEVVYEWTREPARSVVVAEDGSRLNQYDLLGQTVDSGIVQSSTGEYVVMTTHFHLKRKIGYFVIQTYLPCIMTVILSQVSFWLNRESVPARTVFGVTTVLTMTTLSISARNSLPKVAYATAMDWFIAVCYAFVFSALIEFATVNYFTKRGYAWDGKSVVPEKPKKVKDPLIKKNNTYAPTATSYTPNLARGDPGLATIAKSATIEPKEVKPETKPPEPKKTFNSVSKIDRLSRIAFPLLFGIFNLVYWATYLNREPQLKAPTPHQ
# UniProt Q99K10, residues 46-843: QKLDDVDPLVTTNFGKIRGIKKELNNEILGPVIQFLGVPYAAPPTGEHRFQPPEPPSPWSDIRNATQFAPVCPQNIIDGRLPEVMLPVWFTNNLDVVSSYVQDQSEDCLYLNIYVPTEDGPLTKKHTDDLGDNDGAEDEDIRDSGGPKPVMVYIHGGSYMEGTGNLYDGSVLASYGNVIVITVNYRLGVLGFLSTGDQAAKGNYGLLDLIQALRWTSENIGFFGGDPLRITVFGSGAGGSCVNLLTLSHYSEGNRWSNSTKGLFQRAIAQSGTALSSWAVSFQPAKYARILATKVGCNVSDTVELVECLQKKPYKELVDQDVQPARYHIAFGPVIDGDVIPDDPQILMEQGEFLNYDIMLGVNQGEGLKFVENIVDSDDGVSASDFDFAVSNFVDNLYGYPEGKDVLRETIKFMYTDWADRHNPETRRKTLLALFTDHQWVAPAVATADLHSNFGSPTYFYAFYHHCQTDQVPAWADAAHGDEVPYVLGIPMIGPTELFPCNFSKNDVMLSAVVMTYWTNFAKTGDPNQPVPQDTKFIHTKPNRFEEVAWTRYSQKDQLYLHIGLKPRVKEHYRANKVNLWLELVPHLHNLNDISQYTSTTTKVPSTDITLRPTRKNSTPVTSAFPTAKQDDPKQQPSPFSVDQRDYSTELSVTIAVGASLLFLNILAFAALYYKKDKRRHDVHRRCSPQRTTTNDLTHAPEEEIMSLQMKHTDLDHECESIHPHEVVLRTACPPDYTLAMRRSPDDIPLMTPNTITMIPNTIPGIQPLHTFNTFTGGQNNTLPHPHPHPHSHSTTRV
# UniProt Q69ZK9, residues 15-836: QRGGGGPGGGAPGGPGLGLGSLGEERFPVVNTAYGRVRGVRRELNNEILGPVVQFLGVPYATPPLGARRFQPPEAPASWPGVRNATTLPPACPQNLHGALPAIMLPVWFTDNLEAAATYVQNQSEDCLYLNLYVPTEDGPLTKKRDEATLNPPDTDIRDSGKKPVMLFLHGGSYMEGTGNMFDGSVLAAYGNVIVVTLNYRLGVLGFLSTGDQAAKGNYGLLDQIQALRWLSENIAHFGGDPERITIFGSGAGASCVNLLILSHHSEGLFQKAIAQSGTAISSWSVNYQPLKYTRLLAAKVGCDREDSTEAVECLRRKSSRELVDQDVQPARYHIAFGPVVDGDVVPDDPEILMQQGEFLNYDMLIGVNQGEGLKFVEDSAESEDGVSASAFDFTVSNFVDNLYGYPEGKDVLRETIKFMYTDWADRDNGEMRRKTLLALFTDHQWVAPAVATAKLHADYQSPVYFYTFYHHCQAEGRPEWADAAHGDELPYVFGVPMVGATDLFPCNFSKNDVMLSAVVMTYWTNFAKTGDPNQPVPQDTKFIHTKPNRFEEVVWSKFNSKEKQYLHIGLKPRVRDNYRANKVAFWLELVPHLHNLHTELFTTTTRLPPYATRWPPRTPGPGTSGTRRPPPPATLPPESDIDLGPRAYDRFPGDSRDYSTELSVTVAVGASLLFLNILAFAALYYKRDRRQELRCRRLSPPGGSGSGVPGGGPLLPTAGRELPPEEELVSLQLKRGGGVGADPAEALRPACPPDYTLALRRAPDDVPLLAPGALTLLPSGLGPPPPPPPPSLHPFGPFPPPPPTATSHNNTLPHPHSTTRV
# UniProt Q8BYM5, residues 35-825: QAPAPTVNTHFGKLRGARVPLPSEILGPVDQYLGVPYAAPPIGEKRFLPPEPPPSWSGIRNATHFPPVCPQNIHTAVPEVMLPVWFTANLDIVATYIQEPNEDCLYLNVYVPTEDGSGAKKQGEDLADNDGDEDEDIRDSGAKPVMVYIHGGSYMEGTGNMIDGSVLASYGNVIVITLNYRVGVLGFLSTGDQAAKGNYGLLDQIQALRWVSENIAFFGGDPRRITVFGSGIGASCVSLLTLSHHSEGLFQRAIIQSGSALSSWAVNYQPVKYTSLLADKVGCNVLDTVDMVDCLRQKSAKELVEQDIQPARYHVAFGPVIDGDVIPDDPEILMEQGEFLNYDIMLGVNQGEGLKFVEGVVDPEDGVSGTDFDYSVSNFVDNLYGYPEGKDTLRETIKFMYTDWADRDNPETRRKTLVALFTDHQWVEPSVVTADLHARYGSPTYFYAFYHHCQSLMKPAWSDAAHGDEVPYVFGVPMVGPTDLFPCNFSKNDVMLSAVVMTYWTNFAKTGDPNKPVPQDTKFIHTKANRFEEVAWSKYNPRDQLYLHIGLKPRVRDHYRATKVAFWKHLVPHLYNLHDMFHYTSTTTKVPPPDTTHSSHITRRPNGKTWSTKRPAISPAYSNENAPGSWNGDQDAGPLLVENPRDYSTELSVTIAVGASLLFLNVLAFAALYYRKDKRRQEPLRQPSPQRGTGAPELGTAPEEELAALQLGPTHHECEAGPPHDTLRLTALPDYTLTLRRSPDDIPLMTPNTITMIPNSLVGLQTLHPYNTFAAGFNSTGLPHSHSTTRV
# Molecular target: Venus-GABAA receptor α1 subunit fusion (inhibitory synapse affinity tag) (UniProt P62812)
# Assay: co-IP; crude synaptosome fraction of adult mouse cortex (Otx1-VGABAARα1 or Otx1-eGFP control) solubilised in 0.1% Triton X-100, gel filtration on Sephacryl S1000, high molecular weight fractions 6-10 pooled; immunopurified with anti-eGFP antibody on Dynabeads Protein G; immunoblot
row,binding,Substance
1,no binding,Neuroligin 1 (from UniProt Q99K10 46-843)
2,binds,Neuroligin 2 (from UniProt Q69ZK9 15-836)
3,binds,Neuroligin 3 (from UniProt Q8BYM5 35-825)
